At least one peptide structure holds a part that was inferred or is arguable (an end, a ring closure or a residue). Peptide text beside a SMILES is read from it.
Tested on: spontaneously hypertensive rats (SHR)
Assay: Antihypertensive effect in SHR after oral administration, tail cuff method
Format: in vivo, rat
Settings: after six hours

Compound: N[C@@H](Cc1ccc(O)cc1)C(=O)N1CCC[C@H]1C(=O)O [Tyr-Pro] (H-Tyr-Pro-OH)
- Blood Pressure Reduction After 6 hours (ΔSBP ± SE) (Table 5, 0.05 mg/kg body weight): -8.1 ± 3.3
- Blood Pressure Reduction After 6 hours (ΔSBP ± SE) (Table 5, 0.1 mg/kg body weight): -10.2 ± 4.0
- Blood Pressure Reduction After 6 hours (ΔSBP ± SE) (Table 5, 0.3 mg/kg body weight): -20.8 ± 4.1
- Blood Pressure Reduction After 6 hours (ΔSBP ± SE) (Table 5, 1 mg/kg body weight): -27.4 ± 7.1
- Blood Pressure Reduction After 6 hours (ΔSBP ± SE) (Table 5, 3 mg/kg body weight): -30.5 ± 6.7
- Blood Pressure Reduction After 6 hours (ΔSBP ± SE) (Table 5, 10 mg/kg body weight): -32.1 ± 7.4
- Dose dependence of antihypertensive effect (result in words) (range of 0.05 to 3.0 mg/kg body weight): dose-dependent effect

From patent publication US5854029A, “Method for preparing antihypertensive agent” (Calpis Co., Ltd., priority 1996, dated 1998)
